# Results published in the supplement of paper PMC5662767.
# Counter-ions that a name gives are not always drawn. This is one part of the list. Part of the spread comes from offsets between plates or batches.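 The clonal Drosophila S2 line carries Smoothened with a circularly permuted GFP inserted in its cytoplasmic tail, which fluoresces once Hh-driven phosphorylation opens an inhibitory loop. Per-cell fluorescence was read by flow cytometry, scaled to Hh-stimulated untreated cells. Hits were groups of inhibitors sharing pathway targets that shifted fluorescence consistently, not single compounds.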
# Tested on: Drosophila S2 cl14 SmoIP sensor cells
# Test: normalized SmoIP GFP fluorescence (untreated unstimulated = 0%, untreated Hh-stimulated = 100%); higher = more Smo activation sensor fluorescence
# Conditions: compound concentration: 15 uM, 24 h
# [1] = stimulation: Hh conditioned medium (+Hh)
# [2] = stimulation: mock conditioned medium (-Hh)
Structure (SMILES),normalized SmoIP GFP fluorescence [1],normalized SmoIP GFP fluorescence [2]
CNC(=O)c1ccc(N2C(=S)N(c3cnc(C#N)c(C(F)(F)F)c3)C(=O)C23CCC3)cc1F,133%,6.67%
CCC(=O)NCC[C@@H]1CCc2ccc3c(c21)CCO3 [Ramelteon],137%,2.43%
C[C@H]1c2cccc(O)c2C(=O)C2=C(O)[C@]3(O)C(=O)C(C(N)=O)=C(O)[C@@H](N(C)C)[C@@H]3[C@@H](O)[C@@H]21 [doxycycline-hcl],130%,7.18%
CCc1cc2c(cc1N1CCC(N3CCOCC3)CC1)C(C)(C)c1[nH]c3cc(C#N)ccc3c1C2=O,161%,8.81%
C[C@@H]1CCO[C@H]2Cn3cc(C(=O)NCc4ccc(F)cc4F)c(=O)c(O)c3C(=O)N12,139%,0.334%
NC(=O)c1noc([C@H](CCCC2CCCCC2)CC(=O)NO)n1,138%,-4.35%
O=C(NCc1cccc(O)c1)Nc1nc(-c2ccncc2)cs1,116%,-0.491%
